Measurements from PMC10482677.
No constants are given. Whether binding was seen depends on the method and setting. Binding seen in cells or lysates may run through a third protein. Some results given as binding are weak or reduced against the parent protein; the word gives no strength. Sequences can lack the tags named with a protein. One block for each binder: values may come before it.

How the values were obtained:
[1] = biological target: T1, 3×HA-tagged DIESL (DGAT1/2-independent enzyme synthesizing storage lipids), wild type, in HAP1 cells (human) (UniProt Q96MH6); experiment: co-IP; lysate of ∆DIESL HAP1 cells reconstituted with 3×HA-DIESL on anti-HA magnetic beads overnight at 4 °C; IP buffer 25 mM HEPES pH 7.0, 150 mM NaCl, 1% Tween-20; immunoblot for TMX1
T1 sequence (chain, N-glycan on Asn5): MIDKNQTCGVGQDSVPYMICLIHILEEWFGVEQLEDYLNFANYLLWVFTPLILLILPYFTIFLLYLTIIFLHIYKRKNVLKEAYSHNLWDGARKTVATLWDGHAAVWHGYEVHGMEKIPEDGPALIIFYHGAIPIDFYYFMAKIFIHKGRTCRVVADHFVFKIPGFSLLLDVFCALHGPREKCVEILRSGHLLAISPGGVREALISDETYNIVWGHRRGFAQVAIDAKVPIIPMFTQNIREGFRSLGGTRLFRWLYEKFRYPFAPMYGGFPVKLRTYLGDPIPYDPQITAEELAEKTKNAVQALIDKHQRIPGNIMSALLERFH

[2] = biological target: T1, 3×HA-tagged DIESL (DGAT1/2-independent enzyme synthesizing storage lipids), wild type, in HAP1 cells (human); experiment: cross-linking; intact cells (HAP1 ∆DIESL or ∆TMX1∆DIESL reconstituted with 3×HA-DIESL; HeLa expressing 3×HA-DIESL) in 1% paraformaldehyde, 20 min, room temperature, quenched with 0.2 M glycine; RIPA lysis, SDS–PAGE, immunoblot for HA and TMX1
[3] = biological target: T2, 3×HA-tagged DIESL, wild type, in HeLa cells (human) (UniProt Q96MH6); experiment: as above
T2 sequence: T1 sequence (chain, N-glycan on Asn5)

binding [1]: binds
binding [2]: binds
B1: Transmembrane thioredoxin 1 (TMX1), endogenous in HAP1 cells (protein, UniProt Q9H3N1 27-280)
chain: RRSNVRVITDENWRELLEGDWMIEFYAPWCPACQNLQPEWESFAEWGEDLEVNIAKVDVTEQPGLSGRFIITALPTIYHCKDGEFRRYQGPRTKKDFINFISDKEWKSIEPVSSWFGPGSVLMSSMSALFQLSMWIRTCHNYFIEDLGLPVWGSYTVFALATLFSGLLLGLCMIFVADCLCPSKRRRPQPYPYPSKKLLSESAQPLKKVEEEQEADEEDVSEEEAESKEGTNKDFPQNAIRQRSLGPSLATDKS

binding [3]: binds
B2: Transmembrane thioredoxin 1 (TMX1), endogenous in HeLa cells (protein, UniProt Q9H3N1 27-280)
chain: B1 chain
